{"source": "paper PMC3396687", "about": "(PLoS ONE, 2012)", "note": "Plain letter strings leave the end groups untold.", "data": [{"assay": "peptide made by a vendor", "settings": "whole synthesis, HPLC peak area %", "units": {"purity (crude or final not stated)": "%"}, "values": [{"sequence": "KFLNRFWHWLQLKPGQPMY", "purity (crude or final not stated)": 96.0871}, {"sequence": "KFWKRFWHWLQLKPGQPMY", "purity (crude or final not stated)": 99.3}, {"sequence": "RKLQKFWHWLQLKPGQPMY", "purity (crude or final not stated)": 98.4}, {"sequence": "RRLKDFWHWLQLKPGQPMY", "purity (crude or final not stated)": 99.1}]}]}
